# Some of the results follow. Most values lie at the level of the controls, where differences are scatter.
# Sequences of proteins named here, by UniProt entry; tags and fusion partners are left off. A change or cut given only in a name is not applied to a line headed by its entry.
# UniProt Q9NVN8: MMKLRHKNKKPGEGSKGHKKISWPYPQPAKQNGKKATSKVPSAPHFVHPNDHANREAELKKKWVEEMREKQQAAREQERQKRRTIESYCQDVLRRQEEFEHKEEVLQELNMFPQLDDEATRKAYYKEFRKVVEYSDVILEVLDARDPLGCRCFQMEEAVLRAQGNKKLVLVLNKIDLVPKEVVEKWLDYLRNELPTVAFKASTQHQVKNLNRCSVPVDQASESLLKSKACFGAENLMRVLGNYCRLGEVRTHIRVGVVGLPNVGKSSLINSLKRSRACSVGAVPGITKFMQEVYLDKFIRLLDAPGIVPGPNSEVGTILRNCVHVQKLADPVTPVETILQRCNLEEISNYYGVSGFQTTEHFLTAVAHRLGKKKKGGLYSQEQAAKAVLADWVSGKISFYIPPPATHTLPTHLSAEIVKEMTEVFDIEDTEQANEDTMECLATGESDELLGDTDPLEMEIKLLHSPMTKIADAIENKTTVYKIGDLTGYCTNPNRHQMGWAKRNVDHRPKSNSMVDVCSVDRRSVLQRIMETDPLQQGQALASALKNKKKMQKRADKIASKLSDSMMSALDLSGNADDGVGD
# UniProt Q9NY27: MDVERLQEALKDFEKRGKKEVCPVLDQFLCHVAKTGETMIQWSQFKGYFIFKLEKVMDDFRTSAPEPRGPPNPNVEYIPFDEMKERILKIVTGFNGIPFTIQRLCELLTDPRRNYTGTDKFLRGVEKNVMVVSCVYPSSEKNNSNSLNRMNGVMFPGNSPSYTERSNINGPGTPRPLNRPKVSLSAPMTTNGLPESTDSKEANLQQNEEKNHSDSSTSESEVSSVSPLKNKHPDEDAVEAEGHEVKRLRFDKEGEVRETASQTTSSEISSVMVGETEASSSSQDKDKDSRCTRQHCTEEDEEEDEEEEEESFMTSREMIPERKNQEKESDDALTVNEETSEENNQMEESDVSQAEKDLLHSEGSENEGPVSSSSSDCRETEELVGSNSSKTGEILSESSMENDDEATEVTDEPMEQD
# UniProt Q9NV56, whole entry: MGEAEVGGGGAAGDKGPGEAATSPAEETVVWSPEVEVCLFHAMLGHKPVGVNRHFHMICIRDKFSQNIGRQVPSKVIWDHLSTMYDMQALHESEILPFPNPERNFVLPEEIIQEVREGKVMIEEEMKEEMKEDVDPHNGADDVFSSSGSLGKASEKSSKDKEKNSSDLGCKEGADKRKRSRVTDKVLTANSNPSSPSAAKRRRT
# UniProt Q9NTX5: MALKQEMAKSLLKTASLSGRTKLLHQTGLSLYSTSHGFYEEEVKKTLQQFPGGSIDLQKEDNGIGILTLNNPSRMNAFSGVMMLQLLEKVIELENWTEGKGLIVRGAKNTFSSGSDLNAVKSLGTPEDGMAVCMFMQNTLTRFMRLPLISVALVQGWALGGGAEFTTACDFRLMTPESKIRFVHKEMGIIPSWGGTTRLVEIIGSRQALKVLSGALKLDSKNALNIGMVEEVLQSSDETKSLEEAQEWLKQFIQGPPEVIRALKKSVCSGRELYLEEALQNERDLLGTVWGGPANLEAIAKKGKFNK
# UniProt Q9NVC6: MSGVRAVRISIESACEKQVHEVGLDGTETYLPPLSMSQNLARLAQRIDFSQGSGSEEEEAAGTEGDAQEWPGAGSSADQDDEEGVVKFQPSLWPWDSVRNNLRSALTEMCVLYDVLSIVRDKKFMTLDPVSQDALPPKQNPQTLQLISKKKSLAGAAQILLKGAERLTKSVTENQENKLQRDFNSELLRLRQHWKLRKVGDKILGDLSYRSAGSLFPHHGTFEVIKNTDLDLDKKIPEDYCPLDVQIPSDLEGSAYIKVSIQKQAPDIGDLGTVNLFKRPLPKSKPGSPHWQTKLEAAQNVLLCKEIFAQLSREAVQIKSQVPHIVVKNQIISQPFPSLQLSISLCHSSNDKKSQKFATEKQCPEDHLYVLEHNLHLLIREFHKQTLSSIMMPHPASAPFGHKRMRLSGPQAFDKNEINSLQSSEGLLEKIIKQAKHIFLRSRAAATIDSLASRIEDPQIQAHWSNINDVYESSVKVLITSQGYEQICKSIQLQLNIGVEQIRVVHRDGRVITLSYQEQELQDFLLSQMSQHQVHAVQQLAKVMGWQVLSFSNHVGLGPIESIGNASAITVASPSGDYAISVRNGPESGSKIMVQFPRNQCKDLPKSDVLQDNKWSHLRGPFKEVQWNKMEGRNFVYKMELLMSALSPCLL
# UniProt Q9NVH2, whole entry: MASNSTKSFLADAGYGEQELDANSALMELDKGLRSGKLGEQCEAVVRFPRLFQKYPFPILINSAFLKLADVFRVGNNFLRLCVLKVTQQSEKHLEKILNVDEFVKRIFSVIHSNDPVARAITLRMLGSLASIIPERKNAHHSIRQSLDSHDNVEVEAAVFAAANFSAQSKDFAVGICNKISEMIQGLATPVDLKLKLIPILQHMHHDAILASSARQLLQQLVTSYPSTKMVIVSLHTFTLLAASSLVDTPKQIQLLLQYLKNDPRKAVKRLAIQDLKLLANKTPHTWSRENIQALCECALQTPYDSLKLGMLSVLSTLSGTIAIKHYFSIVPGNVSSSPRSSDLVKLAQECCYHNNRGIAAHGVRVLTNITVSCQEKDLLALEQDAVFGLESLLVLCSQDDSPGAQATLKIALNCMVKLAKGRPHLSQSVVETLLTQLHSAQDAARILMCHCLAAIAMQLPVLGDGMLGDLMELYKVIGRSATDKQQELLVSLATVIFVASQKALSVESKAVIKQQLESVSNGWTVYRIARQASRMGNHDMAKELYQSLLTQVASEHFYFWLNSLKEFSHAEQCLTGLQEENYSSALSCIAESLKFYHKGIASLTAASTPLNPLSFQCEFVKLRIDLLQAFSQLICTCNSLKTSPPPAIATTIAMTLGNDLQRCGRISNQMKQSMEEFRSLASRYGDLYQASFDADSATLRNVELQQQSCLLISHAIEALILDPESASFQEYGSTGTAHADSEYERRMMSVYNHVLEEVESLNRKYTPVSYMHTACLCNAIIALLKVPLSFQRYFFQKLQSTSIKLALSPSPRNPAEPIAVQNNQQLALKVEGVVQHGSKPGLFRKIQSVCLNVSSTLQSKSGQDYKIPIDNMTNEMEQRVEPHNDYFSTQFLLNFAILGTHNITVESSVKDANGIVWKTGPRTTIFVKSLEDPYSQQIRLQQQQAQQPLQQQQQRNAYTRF
# UniProt Q9NWA0: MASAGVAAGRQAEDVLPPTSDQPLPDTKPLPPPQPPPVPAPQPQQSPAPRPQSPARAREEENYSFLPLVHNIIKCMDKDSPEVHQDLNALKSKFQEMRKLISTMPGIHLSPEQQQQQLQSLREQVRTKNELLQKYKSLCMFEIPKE
# UniProt Q9NRK6: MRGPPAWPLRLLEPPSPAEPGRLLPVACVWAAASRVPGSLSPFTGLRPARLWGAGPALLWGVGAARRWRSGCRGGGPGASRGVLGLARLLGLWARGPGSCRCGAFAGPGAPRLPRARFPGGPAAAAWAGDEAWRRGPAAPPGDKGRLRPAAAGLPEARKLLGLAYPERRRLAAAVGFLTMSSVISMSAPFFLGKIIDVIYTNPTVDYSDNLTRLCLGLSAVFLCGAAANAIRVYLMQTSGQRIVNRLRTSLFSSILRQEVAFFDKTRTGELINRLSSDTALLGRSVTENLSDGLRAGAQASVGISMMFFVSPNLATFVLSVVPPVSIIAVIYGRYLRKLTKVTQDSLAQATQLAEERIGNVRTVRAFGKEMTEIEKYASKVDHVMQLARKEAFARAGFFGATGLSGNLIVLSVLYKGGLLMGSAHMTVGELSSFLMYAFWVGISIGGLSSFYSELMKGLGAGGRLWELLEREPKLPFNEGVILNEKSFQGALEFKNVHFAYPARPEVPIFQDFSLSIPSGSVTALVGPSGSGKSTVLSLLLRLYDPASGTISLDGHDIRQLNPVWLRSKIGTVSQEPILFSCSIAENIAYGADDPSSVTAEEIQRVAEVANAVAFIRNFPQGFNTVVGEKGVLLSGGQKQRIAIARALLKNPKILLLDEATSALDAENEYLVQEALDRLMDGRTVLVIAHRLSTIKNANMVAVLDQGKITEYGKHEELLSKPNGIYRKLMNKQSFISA
# UniProt Q9NVE5: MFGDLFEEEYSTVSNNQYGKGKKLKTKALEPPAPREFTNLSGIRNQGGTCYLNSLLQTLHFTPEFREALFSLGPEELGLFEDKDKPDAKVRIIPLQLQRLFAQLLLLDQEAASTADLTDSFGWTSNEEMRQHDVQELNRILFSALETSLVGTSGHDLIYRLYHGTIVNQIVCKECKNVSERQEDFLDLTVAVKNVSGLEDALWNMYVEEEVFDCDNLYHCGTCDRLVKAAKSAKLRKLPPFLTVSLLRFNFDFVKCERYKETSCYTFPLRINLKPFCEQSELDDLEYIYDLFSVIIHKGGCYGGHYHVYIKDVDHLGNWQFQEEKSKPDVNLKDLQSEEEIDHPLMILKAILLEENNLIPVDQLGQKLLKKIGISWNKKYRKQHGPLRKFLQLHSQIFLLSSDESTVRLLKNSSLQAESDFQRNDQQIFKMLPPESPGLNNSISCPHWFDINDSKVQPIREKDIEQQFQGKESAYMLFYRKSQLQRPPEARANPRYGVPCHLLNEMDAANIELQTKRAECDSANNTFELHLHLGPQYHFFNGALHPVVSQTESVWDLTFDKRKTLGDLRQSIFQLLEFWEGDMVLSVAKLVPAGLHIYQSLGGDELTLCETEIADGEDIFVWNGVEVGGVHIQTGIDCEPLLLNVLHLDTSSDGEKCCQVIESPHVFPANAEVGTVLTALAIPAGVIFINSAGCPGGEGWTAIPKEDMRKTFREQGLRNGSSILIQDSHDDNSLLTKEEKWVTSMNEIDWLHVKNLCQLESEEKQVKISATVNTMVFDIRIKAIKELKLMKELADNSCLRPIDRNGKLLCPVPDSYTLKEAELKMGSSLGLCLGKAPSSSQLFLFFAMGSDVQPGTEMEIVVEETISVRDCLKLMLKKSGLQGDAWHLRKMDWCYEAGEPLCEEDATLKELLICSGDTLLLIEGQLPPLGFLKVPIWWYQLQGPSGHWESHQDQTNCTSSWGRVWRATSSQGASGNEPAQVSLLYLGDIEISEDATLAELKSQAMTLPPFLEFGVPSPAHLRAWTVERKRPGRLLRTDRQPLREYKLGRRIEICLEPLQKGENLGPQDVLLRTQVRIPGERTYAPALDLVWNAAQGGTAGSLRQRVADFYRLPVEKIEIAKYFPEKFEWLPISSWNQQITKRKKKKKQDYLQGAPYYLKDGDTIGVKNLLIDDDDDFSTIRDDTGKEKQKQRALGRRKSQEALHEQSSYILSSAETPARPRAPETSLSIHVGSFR
# UniProt Q9NRX4: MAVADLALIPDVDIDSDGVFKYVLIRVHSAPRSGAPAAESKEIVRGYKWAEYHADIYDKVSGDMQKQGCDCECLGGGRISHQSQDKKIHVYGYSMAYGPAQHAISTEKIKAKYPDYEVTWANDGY
# Compound: CN[C@@H]1C[C@H]2O[C@@](C)([C@@H]1OC)n1c3ccccc3c3c4c(c5c6ccccc6n2c5c31)C(=O)NC4 [staurosporine]
# Experiment: log2 fold change of tryptic peptide abundance, ligand vs vehicle (limited proteolysis) (log2 ratio); higher = more trypsin-susceptible (destabilized)
# Conditions: ligand concentration: 20 uM; sample: K562 cleared lysate; digestion: 4 min, 22 C (HT-PELSA RT4min, Orbitrap Astral)
row,Target,log2 fold change
1,"GNL3L (peptide sequence: ISFYIPPPATHTLPTHLSAEIVK, peptide start residue: 397) (UniProt Q9NVN8)",0.3
2,"PPP4R2 (peptide sequence: FDKEGEVR, peptide start residue: 250) (UniProt Q9NY27)",0.175
3,"UniProt Q9NV56 (peptide sequence: NSSDLGCKEGADKR, peptide start residue: 164)",-0.336
4,"ECHDC1 (peptide sequence: DLLGTVWGGPANLEAIAK, peptide start residue: 284) (UniProt Q9NTX5)",0.357
5,"MED17 (peptide sequence: SLAGAAQILLK, peptide start residue: 152) (UniProt Q9NVC6)",0.0821
6,"INTS7 (peptide sequence: LGEQCEAVVRFPR, peptide start residue: 38) (UniProt Q9NVH2)",0.432
7,"MED9 (peptide sequence: AREEENYSFLPLVHNIIK, peptide start residue: 57) (UniProt Q9NWA0)",0.163
8,"ABCB10 (peptide sequence: STVLSLLLR, peptide start residue: 534) (UniProt Q9NRK6)",0.368
9,"USP40 (peptide sequence: APETSLSIHVGSFR, peptide start residue: 1222) (UniProt Q9NVE5)",-0.24
10,"PHPT1 (peptide sequence: IHVYGYSMAYGPAQHAISTEK, peptide start residue: 88) (UniProt Q9NRX4)",-0.231

# Two entries from above, reformatted:
row	Target	log2 fold change
6	INTS7 (peptide sequence: LGEQCEAVVRFPR, peptide start residue: 38) (UniProt Q9NVH2)	0.432
7	MED9 (peptide sequence: AREEENYSFLPLVHNIIK, peptide start residue: 57) (UniProt Q9NWA0)	0.163
